Test results from paper PMC6448480, “A Two-Way Proteome Microarray Strategy to Identify Novel Mycobacterium tuberculosis-Human Interactors” (Frontiers in Cellular and Infection Microbiology, 2019).
These are yes or no findings as the source states them, for the method shown. Binding seen in cells or lysates may run through a third protein. Some binding calls cover weakened binding; strength is not graded here. For part of these data: Where a sequence is shown, tags or fusion partners need not be part of it.

Chains of the proteins cited; added tags and fusions are not shown.
UniProt P71925: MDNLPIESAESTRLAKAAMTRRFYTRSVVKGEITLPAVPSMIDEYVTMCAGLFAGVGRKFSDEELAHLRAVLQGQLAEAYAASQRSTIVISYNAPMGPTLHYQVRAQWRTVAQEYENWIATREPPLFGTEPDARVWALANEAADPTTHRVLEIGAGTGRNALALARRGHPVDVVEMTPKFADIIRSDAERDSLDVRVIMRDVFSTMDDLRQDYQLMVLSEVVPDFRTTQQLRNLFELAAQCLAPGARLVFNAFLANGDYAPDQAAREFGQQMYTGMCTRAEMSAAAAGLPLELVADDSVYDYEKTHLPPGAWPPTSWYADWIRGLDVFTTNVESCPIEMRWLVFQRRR
UniProt O33252: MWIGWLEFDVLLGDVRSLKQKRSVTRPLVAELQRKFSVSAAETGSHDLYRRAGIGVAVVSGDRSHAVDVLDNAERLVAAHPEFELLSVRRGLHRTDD
UniProt Q15796: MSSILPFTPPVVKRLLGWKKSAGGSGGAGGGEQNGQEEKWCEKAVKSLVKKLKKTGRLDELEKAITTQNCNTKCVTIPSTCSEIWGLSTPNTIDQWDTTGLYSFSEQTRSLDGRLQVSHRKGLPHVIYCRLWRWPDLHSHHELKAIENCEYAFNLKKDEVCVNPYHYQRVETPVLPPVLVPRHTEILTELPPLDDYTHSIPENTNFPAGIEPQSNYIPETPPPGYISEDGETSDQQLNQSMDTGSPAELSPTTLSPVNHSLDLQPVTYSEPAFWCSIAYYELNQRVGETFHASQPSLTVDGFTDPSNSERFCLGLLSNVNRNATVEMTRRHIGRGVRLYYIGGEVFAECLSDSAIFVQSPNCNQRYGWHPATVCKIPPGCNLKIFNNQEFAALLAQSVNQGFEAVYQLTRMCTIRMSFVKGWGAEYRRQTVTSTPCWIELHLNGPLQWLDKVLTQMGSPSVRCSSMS

Assays:
Experiment in all cases: co-IP
[1] = target: Flag-Rv2423 (Mycobacterium tuberculosis) (UniProt P71925)
[2] = target: Flag-Rv2117 (Mycobacterium tuberculosis) (UniProt O33252)
[3] = target: T1, Flag-Rv0577 (Mycobacterium tuberculosis) (UniProt P9WIR3)
T1 sequence: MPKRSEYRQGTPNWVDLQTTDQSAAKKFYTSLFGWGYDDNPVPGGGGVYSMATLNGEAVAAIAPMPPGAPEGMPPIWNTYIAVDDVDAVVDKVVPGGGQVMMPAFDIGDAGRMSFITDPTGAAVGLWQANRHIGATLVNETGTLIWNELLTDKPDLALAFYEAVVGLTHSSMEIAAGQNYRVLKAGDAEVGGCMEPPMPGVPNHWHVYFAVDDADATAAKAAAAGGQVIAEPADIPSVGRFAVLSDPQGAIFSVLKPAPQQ

Measured: binding

endogenous SMAD2 (HEK293T) (from UniProt Q15796 1-467)
binds: [1] | [2] | [3]
